In patent US20220025056A1:
Results are given in words; binding and its absence hold for the method and conditions named. A result given as binding can be weak or reduced; the word gives no strength.

B1: 3H5 (antibody, human IgG1, V domains shown)
VH: QVQLKESGPGLVAPSQSLSITCTVSGFSLTSYGVSWVRQPPGKGLEWLGVIWGDGSTNYHSALISRLSISKDNSKSQVFLKLNSLQTDDTATYYCAKPRWDDYAMDYWGQGTSVTVSS
VL: DIQMTQTTSSLSASLGDRVTISCRASQDISNYLNWYQQKPDGTVKLLIYYTSRLHSGVPSRFSGSGSGTDYSLTISNLEQEDIATYFCQQGNTLWTFGGGTKLEIK
B2: 12D12 (antibody, human IgG1, V domains shown)
VH: QVQLQQPGAELVKPGASVRMSCKASGYTFTSYWVHWVKQRPGQGLEWIGVIDPSDSYTSYNQNFKGKATLTVDTSSKTAYIHLSSLTSEDSAVYFCARGERYDGDYFAMDYWGQGTSVTVSS
VL: DIVMTQSPASLSVSVGETVTITCRASENIYSNLAWYQQKQGKSPQLLVYAATNLADGVPSRFSGSRSGTQYSLKINSLQSEDFGTYYCQHFWNTPRTFGGGTKLEIK
B3: 27H5 (antibody, human IgG1, V domains shown)
VH: QVQLKESGPGLVAPSQSLSITCTVSGFSLTSYGVSWVRQPPGKGLEWLGVIWGDGNTNYHSALISRLSISKDNSKSQVFLKLNSLQTDDTATYYCARTNWDGWFAYWGQGTLVTVSA
VL: DIVMTQSHKFMSTSVGDRVSITCKASQDVGTAVAWYQQKPGQSPKLLIYWASTRHTGVPDRFTGSGSGTDFTLTISNVQSEDLADYFCQQYRSYPLGTFGGGTKLEIK
B4: 48F12 (antibody, human IgG1, V domains shown)
VH: QVQLKESGPGLVAPSQSLSITCTVSGFSLTSYGVSWVRQPPGKGLEWLGIIWGDGSTNYHSALVSRLSISKDNSKSQVFLKLNSLQTDDTATYYCAKPNWDYYAMDYWGQGTSVTVSS
VL: DIQMTQTTSSLSASLGDRVTISCRASQDISNYLNWYQQKVDGTVKLLISYTSRLHSGVPSRFSGSGSGTDYSLTISNLEQEDIATYFCQQGITLPLTFGAGTKLELK
B5: 1E4C (antibody, human IgG1, V domains shown)
VH: QRELQQSGPELVKPGASVNISCKASGYSFTNHYINWVKQRPGQGLEWIGWIFPGNGDTNYNEKFKGKATLTADTSSSTAYMQLSSLTSEDSAVYFCARTWNYDARWGYWGQGTTVTVSS
VL: DVVMTQTPAFLAVSLGQRATISCRASESIDSYGISFMHWYQQKPGQPPKVLIYRTSNLESGIPARFSGSGSRTDFTLTINPVEADDVATYYCQQSNEDPFTFGSGTKLEIK
B6: 1A9 (antibody, human IgG1, V domains shown)
VH: EVKLQQSGPDLVKPGASVKISCKASGYSFTNFYIHWVKQRPGQGLEWIGWIFPGNGETNYSEKFKGKATLTADTSSSTAYMQFNSLTYEDSAVYFCARTWNYDARWGYWGQGTTLTVSS
VL: DVVMTQTPASLAVSLGQRATISCRASDGIDSYGISFMRWYQQKPGQPPTLLIYRASTLESGIPARFSGSGSRTNFTLTINPVEADDVATYYCQQTNEDPFTFGSGTKLEIK
B7: 3A7A (antibody, human IgG1, V domains shown)
VH: QVQLKESGPELVKPGTSVKISCKASGYNFRNYYIQWVKQRPGQGLEWIGWIFPGNNETNYNEKFKGKATLSADTSSTTAYMQLSSLTSEDSAVYFCARSWNYDARWGYWGQGTTVTVSS
VL: DVVMTQTPASLAVSLGQRATISCRASEIIDNYGISFIHWYQQKPGQPPKLLIYRASNLESGIPARFSGSGSRTDSTLTINPVGADDVATYYCQQSNEDPFTFGSGTKLELK

These binders were tested against anchored ILT2 D1 domain protein (human) (assay: flow cytometry, CHO cells with anchored ILT2 domain proteins).

binding, binds:
B1
B2
B3
B4
B5
B6
B7
